Assay results taken from PubChem BioAssay AID2417 (National Center for Advancing Translational Sciences (NCATS), 2010).
The whole screen tested about 140,000 compounds, of which about 4,300 (3.1%) were called active. Inconclusive results, whose numbers are uncertain, are shown with a selection of clear calls.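 How the source made its calls: active means readout at or below -70, meaning at least 70% loss of cells showing the perinucleolar compartment, a nuclear body marking cancer cells; inconclusive means readout between -30 and a set limit; inactive means the rest.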

Test: High Content Assay for Compounds that inhibit the Assembly of the Perinucleolar Compartment;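 further: plate controls were DMSO wells for no effect and camptothecin positive control wells for full effect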
Conditions: PC3M PTB-GFP, PNC prevalence imaging, 16 h; at 10 µM; hits give low values
Outline: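 Read-out is percentage of cells bearing a perinucleolar compartment, from automated 20x imaging of fixed, Hoechst-stained PC3M PTB-GFP cells. Cells were seeded 4 h, then exposed 16 h to compound (23 nl of library stock) in duplicate plates.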

Q: With `CCCOC(=O)c1ccc(NC(=O)C2C3CCC(C3)C2C(=O)O)cc1` (stereo unspecified) as the compound, how does the activity change (PNC), negative = inhibition read?
A: inconclusive: -47.5%

Q: For `C=CCOCCN1C(=O)C2C(c3ccccc3)C=CC(c3ccccc3)C2C1=O` (stereo unspecified), which activity change (PNC), negative = inhibition is on record?
A: inconclusive: -45.5%

Q: With `COc1ccc(/C=N/NC(=O)c2ccc(C)cc2)cc1CN1CCN(c2ccc(F)cc2)CC1` as the compound, how does the activity change (PNC), negative = inhibition read?
A: inconclusive: -32.9%

Q: For `CC(=O)c1cccc(NS(=O)(=O)N(C)C)c1`, which activity change (PNC), negative = inhibition is on record?
A: inactive: -29.9%

Q: Which activity change (PNC), negative = inhibition does the source give for `CC(=O)c1sc(NC(=O)c2cccc3ccccc23)nc1C` here?
A: inconclusive: -41.3%

Q: For `COC(=O)c1cn(CCOc2ccc(C)cc2)c2ccccc12`, which activity change (PNC), negative = inhibition is on record?
A: active: -82.3%

Q: For `O=C(Nc1ccc(N2CCN(C(=O)c3ccco3)CC2)cc1)C(c1ccccc1)c1ccccc1`, which activity change (PNC), negative = inhibition is on record?
A: inconclusive: -67.7%

Q: For `COc1cccc(N2C(=O)C3ON(c4ccccc4)C(c4cccs4)C3C2=O)c1` (stereo unspecified), which activity change (PNC), negative = inhibition is on record?
A: inconclusive: -47.2%

Q: For `CCC(=O)Nc1ccc(C(=O)NNC(=O)Cc2ccccc2)cc1`, which activity change (PNC), negative = inhibition is on record?
A: inactive: 3.34%

Q: Which activity change (PNC), negative = inhibition does the source give for `CN1CCN(c2ccccc2NC(=O)c2ccc(-c3ccccc3)cc2)CC1` here?
A: inconclusive: -73.9%

Q: For `CCOc1cccc(C(=O)NC2CCCCC2)c1`, which activity change (PNC), negative = inhibition is on record?
A: inconclusive: -42.8%

Q: With `CCOC(=O)C(Nc1ccc2ccccc2c1)C(=O)OCC` as the compound, how does the activity change (PNC), negative = inhibition read?
A: inactive: -27.9%

Q: For `CCc1ccc(NC(=O)C(=O)N/N=C(\C)CC(=O)Nc2ccccn2)cc1`, which activity change (PNC), negative = inhibition is on record?
A: inconclusive: -35.4%

Q: For `COc1ccc(CCNC(=O)Cc2nn(C)c(=O)c3ccccc23)cc1OC`, which activity change (PNC), negative = inhibition is on record?
A: inconclusive: -47.2%

Q: Which activity change (PNC), negative = inhibition does the source give for `O=C(Nc1cccc(Cl)c1)Nc1ccc(Br)cc1F` here?
A: inconclusive: -32%

Q: For `CCCCNS(=O)(=O)c1ccc2nc(SCC(=O)Nc3cccc(F)c3)[nH]c2c1`, which activity change (PNC), negative = inhibition is on record?
A: active: -98.3%

Q: With `O=S(=O)(C/C(=C/CO)S(=O)(=O)c1ccccc1)c1ccccc1` as the compound, how does the activity change (PNC), negative = inhibition read?
A: active: -94.8%

Q: Which activity change (PNC), negative = inhibition does the source give for `O=C(Nc1cccc2ccccc12)c1nn(C23CC4CC(CC(C4)C2)C3)cc1[N+](=O)[O-]` here?
A: inactive: 9.78%

Q: Which activity change (PNC), negative = inhibition does the source give for `O=C(O)c1cc2c(o1)CCC/C2=N\O` here?
A: inconclusive: -44.2%

Q: For `Cc1c(Nc2cc(N3CCCCCC3)c3nonc3c2[N+](=O)[O-])c(=O)n(-c2ccccc2)n1C`, which activity change (PNC), negative = inhibition is on record?
A: inconclusive: -52.4%

Q: Which activity change (PNC), negative = inhibition does the source give for `Cc1ccc2nc(-c3ccc(N4C(=O)CC(N5CCC(C(N)=O)CC5)C4=O)cc3)sc2c1` (stereo unspecified) here?
A: inconclusive: -45.1%

Q: With `COCCOC(=O)/C(=C/c1ccc(OC(=O)c2ccccc2)cc1)C(C)=O` as the compound, how does the activity change (PNC), negative = inhibition read?
A: inconclusive: -42.1%

Q: With `O=C(O)Cn1c(-c2cscn2)nc2ccccc21` as the compound, how does the activity change (PNC), negative = inhibition read?
A: inconclusive: -32.2%

Q: For `CCN1C(=O)CC(N2CCN(CC(=O)NC(C)C)CC2)C1=O` (stereo unspecified), which activity change (PNC), negative = inhibition is on record?
A: inactive: 78.8%

Q: With `OC(CNCC(c1ccco1)N1CCCCC1)c1ccccc1` (stereo unspecified) as the compound, how does the activity change (PNC), negative = inhibition read?
A: active: -127%

Q: Which activity change (PNC), negative = inhibition does the source give for `Cc1ccc(O)c(N=NC2=C(O)CC(C)(C)CC2=O)c1` here?
A: inconclusive: -50.1%

Q: For `CCOC(=O)c1ccc(NC(=S)N2CCN(Cc3ccccc3)CC2)cc1`, which activity change (PNC), negative = inhibition is on record?
A: inconclusive: -70.5%

Q: Which activity change (PNC), negative = inhibition does the source give for `COc1cc(NCCCCCCCN)c2ncccc2c1` here?
A: inconclusive: -77.6%

Q: For `COc1ccc(N(CC(O)Cn2nnc3ccccc32)S(=O)(=O)c2ccc(C)cc2)cc1` (stereo unspecified), which activity change (PNC), negative = inhibition is on record?
A: inconclusive: -39.3%

Q: With `CCC1CCCCN1CC(O)Cn1c2ccccc2n2c(=O)cc(C)c(C#N)c12` (stereo unspecified) as the compound, how does the activity change (PNC), negative = inhibition read?
A: inconclusive: -31.7%

Q: For `O=C(CSc1nc2ccccc2s1)N1CCN(C(=O)c2ccco2)CC1`, which activity change (PNC), negative = inhibition is on record?
A: inactive: -16.6%

Q: Which activity change (PNC), negative = inhibition does the source give for `COc1ccc(CCNC(=O)c2[nH]c(C)c(C(C)=O)c2C)cc1OC` here?
A: inconclusive: -58.8%

Q: With `CCn1c(-c2csc3ccccc23)n[nH]c1=S` as the compound, how does the activity change (PNC), negative = inhibition read?
A: inconclusive: -41.8%

Q: For `Cc1ccc(-n2ncc3c(=O)[nH]c(SCC(=O)N4CCC(C)CC4)nc32)cc1C`, which activity change (PNC), negative = inhibition is on record?
A: inactive: 3.26%

Q: Which activity change (PNC), negative = inhibition does the source give for `O=C(NCCC(c1ccccc1)c1ccccc1)c1ccc(Br)o1` here?
A: inactive: 47.9%

Q: Which activity change (PNC), negative = inhibition does the source give for `CN1/C(=C\C(=O)CSc2ncn[nH]2)C(C)(C)c2ccccc21` here?
A: inconclusive: -60%

Q: With `COc1cc(CNc2nc3ccccc3n2C)cc(OC)c1OC` as the compound, how does the activity change (PNC), negative = inhibition read?
A: inconclusive: -40%

Q: With `COc1ccc(/C=N/Nc2ccc(C(F)(F)F)cc2[N+](=O)[O-])cc1O` as the compound, how does the activity change (PNC), negative = inhibition read?
A: inconclusive: -32.6%

Q: Which activity change (PNC), negative = inhibition does the source give for `CCOC(=O)C=Nc1c(N)n(C)c(=O)n(C)c1=O` here?
A: inconclusive: -57.6%

Q: With `O=C(c1ccc(Cl)nc1)N1CCc2ccccc2C1` as the compound, how does the activity change (PNC), negative = inhibition read?
A: inconclusive: -33.2%

Q: Which activity change (PNC), negative = inhibition does the source give for `Cc1ccc(-n2c(C)cc(C(=O)CN3CCCCC3)c2C)cc1` here?
A: inconclusive: -46.6%

Q: With `COc1ccc(NC(=O)c2ccccc2NS(C)(=O)=O)cc1OC` as the compound, how does the activity change (PNC), negative = inhibition read?
A: inconclusive: -56.1%

Q: Which activity change (PNC), negative = inhibition does the source give for `Cc1cccc(NC(=S)N(c2ccccc2)C(C)C)c1C` here?
A: inconclusive: -41%

Q: For `Clc1ccc(NCc2nnc3n2CCCCC3)cc1`, which activity change (PNC), negative = inhibition is on record?
A: inconclusive: -31%

Q: Which activity change (PNC), negative = inhibition does the source give for `CCC(CC)c1nnc(NC(=O)C2COc3ccccc3O2)s1` (stereo unspecified) here?
A: inconclusive: -58.2%

Q: For `COc1cccc(C(=O)NCc2ccc(-c3nc4ccccc4s3)cc2)c1`, which activity change (PNC), negative = inhibition is on record?
A: inconclusive: -32.7%
